Results as given in patent US11673323B2, “Fluorescent binders for use in monitoring additive manufacturing processes” (General Electric Company, priority 2020, dated 2023).

Assay: Fluorescence of binder solution droplets on metal powder layer excited with 365 nm UV light
Details: droplet on layer of Rene 108 nickel alloy powder

SMILES: CCCN(CCO)c1nc(Nc2ccccc2)nc(Nc2ccc(/C=C/c3ccc(Nc4nc(Nc5ccccc5)nc(N(CCO)CCO)n4)cc3S(=O)(=O)[O-])c(S(=O)(=O)[O-])c2)n1.[Na+].[Na+] [FB 28]
- Fluorescence: Quenched

SMILES: O=S(=O)([O-])c1cc(Nc2nc(CCO)nc(Nc3ccccc3)n2)ccc1/C=C/c1ccc(Nc2nc(NCO)nc(Nc3ccccc3)n2)cc1S(=O)(=O)[O-].[Na+].[Na+] [FB 85]
- Fluorescence: Quenched

SMILES: CCCN(CCC)c1nc(Nc2ccccc2)nc(Nc2ccc(/C=C/c3ccc(Cc4nc(Cc5ccccc5)nc(N(OCC)OCC)n4)cc3S(=O)(=O)[O-])c(S(=O)(=O)[O-])c2)n1.[Na+].[Na+] [FB 113]
- Fluorescence: Quenched

SMILES: O=S(=O)([O-])c1ccccc1C=Cc1ccc(-c2ccc(C=Cc3ccccc3S(=O)(=O)[O-])cc2)cc1.[Na+].[Na+] [FB 351]
- Fluorescence: Bright, homogenous signal
- Fluorescence (listed as Sample H): bright, homogenous fluorescence
